Values from PubChem BioAssay AID1259300 (Sanger Institute, 2017).
This is one part, drawn at random, of 794 reagents tested. 18 of them (2.3%) count as active. 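Calls rest on knock-down alone, not drug synergy; depositor treated synergy scores above 0.15 as synergistic; drug doses alone had little viability effect.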 Viability is capped at 1. Further read-outs or replicates are left out here. Not given: the amount of reagent, the time to read-out.

- Screen: 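Which knock-downs harm HCT15 alone or synergise with the drugs BYL719, cetuximab or trametinib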 (primary screen)
- Cells: HCT15 colorectal cancer cells
- Reagents: siRNA pool against human genes
- Conditions: anchor drug or DMSO vehicle added 24 h after seeding: BYL719 1 µM, cetuximab 5 µg/ml, trametinib 10 nM; drug doses chosen to barely affect viability alone
- Read-out: 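Cell viability after knock-down, as fraction of non-targeting pool wells averaged over replicates, plus robust z-score for knock-down alone; synergy score per drug (BYL719 1 µM, cetuximab 5 µg/ml, trametinib 10 nM)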
- Scale: viability z-score, siRNA alone: higher = more viable cells after knock-down; viability vs non-targeting, siRNA alone: higher = more viable cells
- Active means: 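a knock-down without drug that drives the robust viability z-score under -3 is active, i.e. essential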
- Calls: active = essential: knock-down alone lowers viability (z below -3); inactive = no strong viability loss with knock-down alone

| target | viability z-score, siRNA alone | viability vs non-targeting, siRNA alone | Call |
| --- | --- | --- | --- |
| ETNK1 (ethanolamine kinase 1) | 0.625 | 1 | inactive |
| CSNK1G1 (casein kinase 1 gamma 1) | -1.87 | 0.818 | inactive |
| CAMK4 (calcium/calmodulin dependent protein kinase IV) | -0.363 | 0.928 | inactive |
| BRD2 (bromodomain containing 2) | 0.625 | 1 | inactive |
| CSK (C-terminal Src kinase) | 0.625 | 1 | inactive |
| PFKFB1 (6-phosphofructo-2-kinase/fructose-2,6-biphosphatase 1) | -0.724 | 0.902 | inactive |
| ALK (ALK receptor tyrosine kinase) | 0.625 | 1 | inactive |
| NME2 (NME/NM23 nucleoside diphosphate kinase 2) | 0.625 | 1 | inactive |
| HK3 (hexokinase 3) | 0.424 | 0.985 | inactive |
| CIB2 (calcium and integrin binding family member 2) | -1.14 | 0.872 | inactive |
| STK36 (serine/threonine kinase 36) | 0.625 | 1 | inactive |
| HIPK1 (homeodomain interacting protein kinase 1) | 0.625 | 1 | inactive |
| RPS6KB1 (ribosomal protein S6 kinase B1) | 0.625 | 1 | inactive |
| TRPM6 | -0.0405 | 0.952 | inactive |
| GRK1 (G protein-coupled receptor kinase 1) | -0.452 | 0.922 | inactive |
| PAK3 (p21 (RAC1) activated kinase 3) | -1.1 | 0.875 | inactive |
| DGUOK (deoxyguanosine kinase) | 0.29 | 0.976 | inactive |
| CDKL4 (cyclin dependent kinase like 4) | 0.625 | 1 | inactive |
| ERBB3 (erb-b2 receptor tyrosine kinase 3) | -0.496 | 0.918 | inactive |
| MKNK2 (MAPK interacting serine/threonine kinase 2) | 0.457 | 0.988 | inactive |
| WT1 (WT1 transcription factor) | 0.625 | 1 | inactive |
| LMTK2 (lemur tail kinase 2) | 0.625 | 1 | inactive |
| PIK3R2 (phosphoinositide-3-kinase regulatory subunit 2) | -0.0669 | 0.95 | inactive |
| TEX14 (testis expressed 14, intercellular bridge forming factor) | 0.625 | 1 | inactive |
| SF3B1 (splicing factor 3b subunit 1) | -8.13 | 0.363 | active |
| WIPF1 (WAS/WASL interacting protein family member 1) | -1.84 | 0.821 | inactive |
| CDKN2D (cyclin dependent kinase inhibitor 2D) | -0.908 | 0.889 | inactive |
| MERTK (MER proto-oncogene, tyrosine kinase) | 0.625 | 1 | inactive |
| EPHA2 (EPH receptor A2) | 0.625 | 1 | inactive |
| IP6K1 (inositol hexakisphosphate kinase 1) | 0.625 | 1 | inactive |
| INSR (insulin receptor) | 0.625 | 1 | inactive |
| TWF2 (twinfilin actin binding protein 2) | 0.52 | 0.992 | inactive |
| CDK5 (cyclin dependent kinase 5) | 0.625 | 1 | inactive |
| EFNA5 (ephrin A5) | 0.625 | 1 | inactive |
| CDK5R1 (cyclin dependent kinase 5 regulatory subunit 1) | -1.22 | 0.866 | inactive |
| MAPK1 (mitogen-activated protein kinase 1) | 0.625 | 1 | inactive |
| MAST1 (microtubule associated serine/threonine kinase 1) | 0.625 | 1 | inactive |
| ARAF (A-Raf proto-oncogene, serine/threonine kinase) | 0.179 | 0.968 | inactive |
| SPHK1 (sphingosine kinase 1) | 0.625 | 1 | inactive |
| SCYL3 (SCY1 like pseudokinase 3) | -0.389 | 0.926 | inactive |
| LMTK3 (lemur tail kinase 3) | 0.253 | 0.973 | inactive |
| HCK (HCK proto-oncogene, Src family tyrosine kinase) | 0.495 | 0.991 | inactive |
| CAMK1 (calcium/calmodulin dependent protein kinase I) | -0.39 | 0.926 | inactive |
| MYO3A (myosin IIIA) | 0.625 | 1 | inactive |
| PTPRU (protein tyrosine phosphatase receptor type U) | -0.117 | 0.946 | inactive |
| PRKCH (protein kinase C eta) | -2.43 | 0.778 | inactive |
| MAPK14 (mitogen-activated protein kinase 14) | -1.87 | 0.819 | inactive |
| PRKY (protein kinase Y-linked (pseudogene)) | 0.625 | 1 | inactive |
| PLK2 (polo like kinase 2) | 0.625 | 1 | inactive |
| PHKB (phosphorylase kinase regulatory subunit beta) | 0.071 | 0.96 | inactive |

Sorted by “viability vs non-targeting, siRNA alone” (highest first): some entries from above.
| target | viability z-score, siRNA alone | viability vs non-targeting, siRNA alone | Call |
| --- | --- | --- | --- |
| MAST1 (microtubule associated serine/threonine kinase 1) | 0.625 | 1 | inactive |
| SPHK1 (sphingosine kinase 1) | 0.625 | 1 | inactive |
| HCK (HCK proto-oncogene, Src family tyrosine kinase) | 0.495 | 0.991 | inactive |
| LMTK3 (lemur tail kinase 3) | 0.253 | 0.973 | inactive |
| ARAF (A-Raf proto-oncogene, serine/threonine kinase) | 0.179 | 0.968 | inactive |
| SCYL3 (SCY1 like pseudokinase 3) | -0.389 | 0.926 | inactive |
| CAMK1 (calcium/calmodulin dependent protein kinase I) | -0.39 | 0.926 | inactive |
